Source: ChEMBL document CHEMBL3988442, “University of Dundee, Small-Polar-MMV Screening Library” (2021).

The chains behind the UniProt entries cited, without tags or fusion partners.
UniProt E9BF75, entry or part of it: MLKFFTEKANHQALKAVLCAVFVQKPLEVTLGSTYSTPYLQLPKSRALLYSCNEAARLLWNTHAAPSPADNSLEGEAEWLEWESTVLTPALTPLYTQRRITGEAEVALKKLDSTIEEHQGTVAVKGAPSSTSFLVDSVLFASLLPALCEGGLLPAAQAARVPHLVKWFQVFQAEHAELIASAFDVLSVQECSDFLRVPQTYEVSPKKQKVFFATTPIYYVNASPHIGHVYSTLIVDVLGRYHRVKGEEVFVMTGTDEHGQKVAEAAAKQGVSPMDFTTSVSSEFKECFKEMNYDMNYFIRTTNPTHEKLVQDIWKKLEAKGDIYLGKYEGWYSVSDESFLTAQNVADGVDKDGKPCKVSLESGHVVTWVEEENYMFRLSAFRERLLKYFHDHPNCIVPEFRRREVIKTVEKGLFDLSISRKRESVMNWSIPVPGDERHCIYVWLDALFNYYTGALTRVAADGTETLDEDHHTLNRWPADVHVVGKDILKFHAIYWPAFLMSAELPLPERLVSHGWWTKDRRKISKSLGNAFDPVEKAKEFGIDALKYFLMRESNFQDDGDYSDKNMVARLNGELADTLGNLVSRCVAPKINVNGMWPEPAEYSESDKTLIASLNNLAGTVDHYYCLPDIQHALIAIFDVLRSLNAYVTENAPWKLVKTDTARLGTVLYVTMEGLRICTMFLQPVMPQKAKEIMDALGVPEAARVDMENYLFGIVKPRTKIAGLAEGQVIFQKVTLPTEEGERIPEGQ

Mtb heat-shock: 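Assay on Mycobacterium tuberculosis, filed only as a heat shock assay from Cornell; the read-out is not stated. The concentration is filed as 10 mM, unlikely as a test dose, so the dose is not known. Higher reads as stronger inhibition (inferred: compounds with an IC50 in retests scored well above the rest). About 69,000 compounds were tested under these conditions; 1.4% (about 930) showed 50% or more at least once.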
LdMetRS: 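Primary screen of methionyl-tRNA synthetase; the read-out is not stated. Target: Methionyl-tRNA synthetase (putative), Leishmania donovani (UniProt E9BF75). The test concentration is not given. The values are filed as inhibition. Of about 68,000 compounds tested this way, about 24 (0.035%) reached 50% or more in at least one test.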
Mtb growth Cornell: 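Whole-cell assay for inhibitors of Mycobacterium tuberculosis growth, labelled Cornell in the record; the read-out is not stated. The concentration is filed as 10 mM, unlikely as a test dose, so the dose is not known. The record gives no direction; compounds strong in two other growth screens of this library score well above the rest, so higher reads as stronger inhibition. Size under these conditions: about 53,000 compounds, about 900 of them at 50% or above in at least one test.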

Results are percentages, as filed.
How 0% and 100% were set is not recorded. Most values in the screen are low, and negative values occur.
This is an unselected part of the compounds tested.
A dash means the value is not listed here; it may have been measured.

structure,Mtb heat-shock,LdMetRS,Mtb growth Cornell
[H][C@@]12CN(Cc3csc(C)n3)C[C@]1([H])OCCN2c1ncc(F)cn1,29.14,-,33.36
CCOCC1CN(c2ccncn2)Cc2cnn(CC3CC3)c21.O=C(O)C(F)(F)F.O=C(O)C(F)(F)F (stereo not drawn),-24.31,-,1.767
CC(C)N1CCC(Nc2ccn(Cc3ccccn3)n2)C1=O (stereo not drawn),4.648,9.408,9.73
CC(NC(=O)COCC(F)(F)F)c1nnc2n1CCCCC2 (stereo not drawn),-9.208,13.64,-
CC(C)CN1CC2(CCN(C(=O)C(O)c3ccccc3Cl)CC2)CC1=O (stereo not drawn),-6.11,17.69,1.813
CCCN1CCC(NC(=O)c2ccc(F)cc2I)CC1,-0.4086,15.93,7.65
COc1cc2c(cc1CN1CCc3sccc3C1C)OCO2 (stereo not drawn),9.132,7.979,8.976
CCNc1ccnc(NCC2CNCCO2)n1 (stereo not drawn),3.687,4.11,-
O=C(c1ccncc1)N1CCC2(COc3ncccc3S(=O)(=O)N2)C1 (stereo not drawn),-11.98,8,-
O=C(O)C(F)(F)F.[H][C@@]12CCCO[C@]1([H])[C@@H](OC)CN2C(=O)c1cccnc1,-7.582,-,25.22
CCCc1cc(=O)[nH]c(-c2ccccc2CN(C)CCn2cccn2)n1,-22.44,1.25,-
[H][C@]12CC[C@]([H])(CN(C(=O)Cn3c(C)cc(C)nc3=O)C1)N(CC1CCC1)C2,8.53,-,-32.12
CCc1nsc(N2CCCN(C(=O)c3ccc(OC)cc3)CC2)n1,-2.305,8.242,-5.42
CS(=O)(=O)N1CCCC(c2cccc(-c3ccccc3F)n2)C1 (stereo not drawn),-5.345,11.63,29.33
CCOC(=O)CNc1nc(C(C)(C)C)nc2c1cnn2C,-42.74,13.19,8.389
CN(C)C(C(=O)N1CCN(CCn2cccc2)CC1)c1cccc(F)c1 (stereo not drawn),5.364,15.5,18.02
CC(=O)c1nn(-c2ccccc2)c(C)c1C(C)=O,-2.446,10.19,31.49
Cc1ccc(NC2CCN(C(=O)CCn3nc(C)cc3C)CC2)nn1,-13.99,17.89,-
O=C(NCCc1nnc2n1CCC2)N(Cc1ccco1)C1CCCC1,-0.7804,13.59,-6.612
Cc1ncnc2c1CCN(c1ccccn1)CC2,-,17.83,-
CC(=O)Nc1nc(CN2CCCC2Cn2cc(C)cn2)cs1 (stereo not drawn),69.78,2.778,-
O=C(NCc1ccc(-n2cncn2)nc1)c1cc[nH]n1,17.46,19.05,8.899
COc1cccc(Cl)c1C(C(=O)O)N1CCC(O)(c2cccnc2)CC1 (stereo not drawn),-30.35,1.804,5.444
O=C(c1cc(-n2cnnn2)ccc1Cl)N1CCC2(CC1)OCCO2,2.967,15.49,-10.65
Cn1ccnc1SCCNC(=O)c1c[nH]nc1C1CCCCC1,0.5616,23,5.185
O=C(O)C(F)(F)F.[H][C@]12CCN(Cc3c(C)noc3C)[C@@]1([H])CC[C@H](COCC)O2,-16.31,-,7.173
Cc1noc2nc(C3CCN(CC4=CCCOC4)CC3)cc(C(F)F)c12.Cl,7.616,-,14.61
Cc1cc(C2CCC2)nc(N(C)Cc2cnccn2)n1,-32.93,1.272,22.05
CCN1CC2(CCN(CC3COCCO3)CC2)OC1=O (stereo not drawn),-185,-1.511,-
CN(C)C(=O)COCc1ncn2c1CN(c1ncc(F)cn1)CCC2,1.634,8.759,-12.06
COc1ccccc1N1CC(NC(=O)Cn2cc(C)nn2)CC1=O (stereo not drawn),8.945,14.92,-54.68
CN(C)CCN(Cc1ccc(Cl)cc1)C(=O)c1cc[nH]n1,-2.842,11.5,-48.8
O=c1[nH]cc(N2CCCCC2)c(=O)[nH]1,2.421,4.762,4.601
NC(=O)C1CCN(c2ncccc2C(=O)N2CCc3ccccc32)C1 (stereo not drawn),-2.642,13.17,-
CN(C)[C@@H]1CCN(c2ncccn2)[C@H]1Cc1cccnc1,-,15.31,-
CCS(=O)(=O)N1C[C@H](c2nc(C)no2)C[C@H]2OCC[C@H]21,-,20.25,-
Cc1cccc2nc(CN3CCC(Cn4ccnn4)CC3)cc(=O)n12,-32.03,14.25,10.82
O=C(COc1ccccc1NCc1ccoc1)N1CCOCC1,-32.08,9.296,-9.087
CS(=O)(=O)NCc1cnc2n1CCN(Cc1ccccn1)CC2,-,9.375,-
CCCn1nccc1-c1nccnc1CC1CCN(C(C)=O)CC1,9.676,18.1,-43.97
COc1ccccc1C(N)CC(C)C (stereo not drawn),-0.8675,7.216,-
Cc1ccc(-c2nnc(C(C)N3CCn4c(C)nnc4C3)o2)cc1 (stereo not drawn),8.895,1.449,-9.489
CN(C)c1ncc2c(n1)C1(CCN(Cc3ccccc3)C1)COC2 (stereo not drawn),-,15.5,-
CC1CCN(c2cc(CCC3CCCN3)ncn2)CC1 (stereo not drawn),-,19.79,-
O=C(NCC1CC2(CO1)CN(c1nncs1)C2)C1CCC1 (stereo not drawn),28.87,18.18,6.902
CN(C)C(=O)C1CCN(Cn2nc(-c3ccc(F)cc3)oc2=O)CC1,-5.013,13.39,-57.8
O=C(NCc1ccc(F)cc1F)C(c1cccnc1)N1CCOCC1 (stereo not drawn),5.75,7.711,18.07
COC(=O)c1cccc(S(=O)(=O)Nc2ncc(C)s2)c1,1.16,-12.53,-17.56
O=C1CSC(c2ccsc2)c2sccc2N1 (stereo not drawn),-14.91,3.734,-
COCCC(=O)N1CCC2(CCN(Cc3ccc(C)cc3)CC2)C1,-,12.09,-
COc1cccc(CNc2cc(C)nc(-c3ccncc3)n2)c1O,-7.936,9.409,23.91
O=c1ccc(S(=O)(=O)N2CCCC2)cn1CC1CCCCO1 (stereo not drawn),-6.62,12.61,-
[H][C@@]12CN(C(=O)NC3CC3)C[C@]1([H])C(=O)N(c1ccccc1)C2,-10.8,-,8.924
CCC(O)CN1CCN(C(=O)c2cccn2Cc2cccs2)CC1 (stereo not drawn),14.85,6.103,18.08
CN(C)CCN(CC1CCCO1)C(=O)Cc1cn2ccccc2n1 (stereo not drawn),-14.99,2.801,-42.64
OC(COCc1ccc2c(c1)OCO2)CN1CC(n2cccn2)C1 (stereo not drawn),17.61,7.65,-
CC(C)CC(C)N(C)C(=O)c1nc(S(C)(=O)=O)n2ccccc12 (stereo not drawn),8.69,19.2,-
CCc1ccc(CN(C)Cc2nc(-c3cnccn3)no2)nc1,20.61,6.933,-
Cc1cccc(-c2nnn3c2COC(CNCc2nccs2)C3)c1 (stereo not drawn),-,6.875,-

Repeated from the top, 7 entries:

| structure | Mtb heat-shock | LdMetRS | Mtb growth Cornell |
|---|---|---|---|
| `[H][C@@]12CN(Cc3csc(C)n3)C[C@]1([H])OCCN2c1ncc(F)cn1` | 29.14 | - | 33.36 |
| `CCOCC1CN(c2ccncn2)Cc2cnn(CC3CC3)c21.O=C(O)C(F)(F)F.O=C(O)C(F)(F)F` (stereo not drawn) | -24.31 | - | 1.767 |
| `CC(C)N1CCC(Nc2ccn(Cc3ccccn3)n2)C1=O` (stereo not drawn) | 4.648 | 9.408 | 9.73 |
| `CC(NC(=O)COCC(F)(F)F)c1nnc2n1CCCCC2` (stereo not drawn) | -9.208 | 13.64 | - |
| `CC(C)CN1CC2(CCN(C(=O)C(O)c3ccccc3Cl)CC2)CC1=O` (stereo not drawn) | -6.11 | 17.69 | 1.813 |
| `CCCN1CCC(NC(=O)c2ccc(F)cc2I)CC1` | -0.4086 | 15.93 | 7.65 |
| `COc1cc2c(cc1CN1CCc3sccc3C1C)OCO2` (stereo not drawn) | 9.132 | 7.979 | 8.976 |